US20250288657A1
These are yes or no findings as the source states them, for the method shown. Some results given as binding are weak or reduced against the parent protein; the word gives no strength.

How the values were obtained:
[1] = molecular target: human von Willebrand Factor (vWF) (Invitrogen #RP-43132) (human) (UniProt P04275); test: direct ELISA
[2] = molecular target: human von Willebrand Factor (vWF) (Invitrogen #RP-43132) (human) (UniProt P04275); test: direct ELISA, coated SpA protein, human vWF, anti-vWF detection

SpA_WT-49-339 (from UniProt A0A0H3K686 37-327)
binding [1]: binds
binding [2]: binds
